Results are given in words; binding and its absence hold for the method and conditions named. In cells and extracts the contact can be indirect. Some results given as binding are weak or reduced against the parent protein; the word gives no strength.
Experiments:
[1] = biological target: recombinant SUMO1 immobilized on agarose beads (UniProt P63165); experiment: pull-down; recombinant SUMO1 or SUMO2 immobilized on agarose beads incubated with cleared cell lysates (cells with or without 10 ug/ml bleomycin, 1 h) for 2 h at 4°C; EBC buffer (50 mM Tris pH 7.5, 150 mM NaCl, 1 mM EDTA, 1 mM DTT) with 0.5% NP-40 and benzonase; immunoblot; only the target purified
[2] = biological target: endogenous MDC1 (human (endogenous in U2OS)) (UniProt Q14676); experiment: co-IP; endogenous MDC1 immunoprecipitated from U2OS nuclear lysates, with or without 10 ug/ml bleomycin; Western blot; also in cells depleted of Ubc9 or PIAS4 (Appendix Fig S4A)

Protein sequences, listed by entry. Tags and fused reporters are not part of them. Lines headed by an entry give the natural chain unless they say otherwise; changes in a name come on top. Chains listed by the source or under a name are the forms on record and can include a tag or linker. Residues count along the entry.
UniProt P63165, residues 1-97: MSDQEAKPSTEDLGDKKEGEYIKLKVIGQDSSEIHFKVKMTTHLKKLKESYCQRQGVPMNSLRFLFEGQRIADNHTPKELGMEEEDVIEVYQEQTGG
UniProt Q14676: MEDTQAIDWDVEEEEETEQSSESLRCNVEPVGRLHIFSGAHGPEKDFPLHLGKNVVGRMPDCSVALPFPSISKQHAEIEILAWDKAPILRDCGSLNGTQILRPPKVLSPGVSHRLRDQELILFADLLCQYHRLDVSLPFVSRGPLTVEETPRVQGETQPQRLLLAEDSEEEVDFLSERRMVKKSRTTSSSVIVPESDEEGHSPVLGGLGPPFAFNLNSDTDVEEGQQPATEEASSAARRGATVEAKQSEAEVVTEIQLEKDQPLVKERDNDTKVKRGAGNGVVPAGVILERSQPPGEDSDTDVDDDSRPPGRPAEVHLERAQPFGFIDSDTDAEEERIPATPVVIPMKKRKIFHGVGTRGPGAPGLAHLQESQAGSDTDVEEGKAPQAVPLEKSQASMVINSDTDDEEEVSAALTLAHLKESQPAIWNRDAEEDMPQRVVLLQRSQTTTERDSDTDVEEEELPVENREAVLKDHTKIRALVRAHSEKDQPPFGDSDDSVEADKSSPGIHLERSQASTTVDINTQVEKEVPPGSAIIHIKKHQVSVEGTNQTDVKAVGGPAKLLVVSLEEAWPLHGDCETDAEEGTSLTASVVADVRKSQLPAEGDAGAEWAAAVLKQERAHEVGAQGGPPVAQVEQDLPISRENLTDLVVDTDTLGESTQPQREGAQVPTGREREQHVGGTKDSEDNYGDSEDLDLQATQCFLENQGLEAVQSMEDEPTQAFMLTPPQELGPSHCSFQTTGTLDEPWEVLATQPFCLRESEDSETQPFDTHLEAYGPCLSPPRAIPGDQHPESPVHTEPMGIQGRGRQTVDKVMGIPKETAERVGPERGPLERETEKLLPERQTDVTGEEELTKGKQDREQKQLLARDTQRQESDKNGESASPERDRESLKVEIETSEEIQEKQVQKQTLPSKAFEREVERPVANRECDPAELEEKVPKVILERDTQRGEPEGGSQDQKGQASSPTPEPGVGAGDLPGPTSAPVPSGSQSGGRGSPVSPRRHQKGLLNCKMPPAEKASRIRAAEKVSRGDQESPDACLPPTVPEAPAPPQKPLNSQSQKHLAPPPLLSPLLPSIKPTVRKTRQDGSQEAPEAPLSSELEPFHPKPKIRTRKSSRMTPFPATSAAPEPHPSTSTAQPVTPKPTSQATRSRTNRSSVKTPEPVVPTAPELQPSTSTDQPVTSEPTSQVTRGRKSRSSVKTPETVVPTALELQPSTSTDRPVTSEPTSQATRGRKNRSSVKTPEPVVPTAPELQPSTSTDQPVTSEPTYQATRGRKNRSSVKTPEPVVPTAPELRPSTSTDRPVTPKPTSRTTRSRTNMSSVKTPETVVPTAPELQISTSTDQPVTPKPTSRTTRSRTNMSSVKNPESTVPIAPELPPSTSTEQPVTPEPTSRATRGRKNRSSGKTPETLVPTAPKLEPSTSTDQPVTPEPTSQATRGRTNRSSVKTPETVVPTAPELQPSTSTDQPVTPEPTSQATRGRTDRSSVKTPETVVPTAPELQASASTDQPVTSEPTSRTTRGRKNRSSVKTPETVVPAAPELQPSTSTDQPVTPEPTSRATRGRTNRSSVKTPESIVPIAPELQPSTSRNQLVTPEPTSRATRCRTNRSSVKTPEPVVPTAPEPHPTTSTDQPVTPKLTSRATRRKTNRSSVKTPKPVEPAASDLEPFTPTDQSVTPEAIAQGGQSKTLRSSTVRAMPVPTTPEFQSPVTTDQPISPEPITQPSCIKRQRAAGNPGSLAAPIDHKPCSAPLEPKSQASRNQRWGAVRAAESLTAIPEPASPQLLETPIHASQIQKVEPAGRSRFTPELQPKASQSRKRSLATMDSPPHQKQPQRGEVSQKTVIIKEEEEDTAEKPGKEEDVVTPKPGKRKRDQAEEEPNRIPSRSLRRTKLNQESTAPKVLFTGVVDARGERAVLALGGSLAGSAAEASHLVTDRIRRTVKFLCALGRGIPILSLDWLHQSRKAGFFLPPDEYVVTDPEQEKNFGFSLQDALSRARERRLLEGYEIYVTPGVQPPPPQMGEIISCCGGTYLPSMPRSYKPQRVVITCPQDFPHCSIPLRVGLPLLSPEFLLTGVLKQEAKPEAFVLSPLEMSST
UniProt P54252: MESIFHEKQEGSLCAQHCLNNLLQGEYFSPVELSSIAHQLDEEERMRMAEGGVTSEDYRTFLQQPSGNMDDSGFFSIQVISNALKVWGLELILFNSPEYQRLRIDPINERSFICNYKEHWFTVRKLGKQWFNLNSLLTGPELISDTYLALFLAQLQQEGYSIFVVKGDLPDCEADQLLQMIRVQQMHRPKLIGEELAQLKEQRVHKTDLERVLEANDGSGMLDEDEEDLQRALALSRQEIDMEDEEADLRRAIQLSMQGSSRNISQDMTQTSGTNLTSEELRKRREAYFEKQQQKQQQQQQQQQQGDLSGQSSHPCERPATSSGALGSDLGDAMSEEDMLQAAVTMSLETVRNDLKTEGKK
putative SIM mutated 10xHis‐ataxin‐3‐HA (P54252, form named): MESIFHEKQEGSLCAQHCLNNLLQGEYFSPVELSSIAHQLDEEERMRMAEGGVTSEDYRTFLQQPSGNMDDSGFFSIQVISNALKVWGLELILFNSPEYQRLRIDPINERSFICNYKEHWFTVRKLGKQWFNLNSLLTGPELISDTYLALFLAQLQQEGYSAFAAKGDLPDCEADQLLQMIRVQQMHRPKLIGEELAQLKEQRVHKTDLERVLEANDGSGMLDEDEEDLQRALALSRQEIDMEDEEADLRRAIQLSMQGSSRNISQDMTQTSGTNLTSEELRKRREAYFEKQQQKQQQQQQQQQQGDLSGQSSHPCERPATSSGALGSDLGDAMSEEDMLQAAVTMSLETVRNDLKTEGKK

Row | binding [1] | binding [2] | Substance
1 | binds |  | GFP‐tagged N‐terminal fragment of ataxin‐3 (Josephin domain) (from UniProt P54252 1-180) (domain or fragment)
2 | no binding |  | putative SIM mutated 10xHis‐ataxin‐3‐HA (from UniProt P54252 1-361) (enzyme)
3 | binds | binds | endogenous ataxin‐3 (from UniProt P54252 1-361) (enzyme)

Source: paper PMC5391139
